The results in this text go back to the supplement of paper PMC12067093, “Discovery and optimisation of a covalent ligand for TRIM25 and its application to targeted protein ubiquitination” (Chemical Science, 2025).

The chains behind the UniProt entries cited, without tags or fusion partners. Where a name states a change or a piece, a line headed by the entry shows the natural chain unless it says otherwise.
UniProt P49915: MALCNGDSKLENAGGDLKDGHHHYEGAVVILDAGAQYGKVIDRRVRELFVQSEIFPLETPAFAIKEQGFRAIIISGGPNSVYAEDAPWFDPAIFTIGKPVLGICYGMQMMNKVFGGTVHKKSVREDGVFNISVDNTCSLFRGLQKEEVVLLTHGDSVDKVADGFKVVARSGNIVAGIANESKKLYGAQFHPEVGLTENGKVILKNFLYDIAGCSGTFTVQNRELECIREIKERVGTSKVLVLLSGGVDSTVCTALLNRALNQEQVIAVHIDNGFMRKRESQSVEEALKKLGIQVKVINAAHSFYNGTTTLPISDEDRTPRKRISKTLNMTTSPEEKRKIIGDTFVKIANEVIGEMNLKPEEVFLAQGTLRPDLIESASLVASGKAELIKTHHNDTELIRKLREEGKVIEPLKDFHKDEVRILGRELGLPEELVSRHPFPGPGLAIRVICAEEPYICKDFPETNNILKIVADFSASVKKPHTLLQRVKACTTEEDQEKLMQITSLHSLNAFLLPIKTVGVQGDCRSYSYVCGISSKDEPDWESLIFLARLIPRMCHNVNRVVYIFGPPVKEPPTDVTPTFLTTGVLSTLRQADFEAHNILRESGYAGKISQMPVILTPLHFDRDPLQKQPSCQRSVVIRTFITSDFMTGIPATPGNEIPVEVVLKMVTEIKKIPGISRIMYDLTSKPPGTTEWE
UniProt P06280: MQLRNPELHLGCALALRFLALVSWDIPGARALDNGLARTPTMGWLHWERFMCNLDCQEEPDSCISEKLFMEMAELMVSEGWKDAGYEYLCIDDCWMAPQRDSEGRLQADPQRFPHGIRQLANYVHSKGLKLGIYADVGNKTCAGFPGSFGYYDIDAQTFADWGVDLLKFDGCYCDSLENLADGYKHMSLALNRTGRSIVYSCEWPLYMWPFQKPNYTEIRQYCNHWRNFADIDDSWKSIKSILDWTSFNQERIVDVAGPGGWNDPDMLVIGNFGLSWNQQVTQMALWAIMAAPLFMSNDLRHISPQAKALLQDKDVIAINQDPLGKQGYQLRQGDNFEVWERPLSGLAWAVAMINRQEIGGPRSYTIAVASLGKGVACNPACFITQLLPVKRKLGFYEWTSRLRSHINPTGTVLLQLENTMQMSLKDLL
UniProt Q8N335: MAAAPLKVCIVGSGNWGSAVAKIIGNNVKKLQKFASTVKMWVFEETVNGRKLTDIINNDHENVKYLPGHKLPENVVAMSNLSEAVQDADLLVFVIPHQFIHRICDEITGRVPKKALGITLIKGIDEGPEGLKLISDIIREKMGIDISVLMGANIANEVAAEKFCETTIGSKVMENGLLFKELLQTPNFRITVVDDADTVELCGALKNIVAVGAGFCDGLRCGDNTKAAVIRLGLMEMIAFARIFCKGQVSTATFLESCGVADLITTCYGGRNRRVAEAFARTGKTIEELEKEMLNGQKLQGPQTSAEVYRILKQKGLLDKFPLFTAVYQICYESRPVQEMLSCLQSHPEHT
UniProt Q14789: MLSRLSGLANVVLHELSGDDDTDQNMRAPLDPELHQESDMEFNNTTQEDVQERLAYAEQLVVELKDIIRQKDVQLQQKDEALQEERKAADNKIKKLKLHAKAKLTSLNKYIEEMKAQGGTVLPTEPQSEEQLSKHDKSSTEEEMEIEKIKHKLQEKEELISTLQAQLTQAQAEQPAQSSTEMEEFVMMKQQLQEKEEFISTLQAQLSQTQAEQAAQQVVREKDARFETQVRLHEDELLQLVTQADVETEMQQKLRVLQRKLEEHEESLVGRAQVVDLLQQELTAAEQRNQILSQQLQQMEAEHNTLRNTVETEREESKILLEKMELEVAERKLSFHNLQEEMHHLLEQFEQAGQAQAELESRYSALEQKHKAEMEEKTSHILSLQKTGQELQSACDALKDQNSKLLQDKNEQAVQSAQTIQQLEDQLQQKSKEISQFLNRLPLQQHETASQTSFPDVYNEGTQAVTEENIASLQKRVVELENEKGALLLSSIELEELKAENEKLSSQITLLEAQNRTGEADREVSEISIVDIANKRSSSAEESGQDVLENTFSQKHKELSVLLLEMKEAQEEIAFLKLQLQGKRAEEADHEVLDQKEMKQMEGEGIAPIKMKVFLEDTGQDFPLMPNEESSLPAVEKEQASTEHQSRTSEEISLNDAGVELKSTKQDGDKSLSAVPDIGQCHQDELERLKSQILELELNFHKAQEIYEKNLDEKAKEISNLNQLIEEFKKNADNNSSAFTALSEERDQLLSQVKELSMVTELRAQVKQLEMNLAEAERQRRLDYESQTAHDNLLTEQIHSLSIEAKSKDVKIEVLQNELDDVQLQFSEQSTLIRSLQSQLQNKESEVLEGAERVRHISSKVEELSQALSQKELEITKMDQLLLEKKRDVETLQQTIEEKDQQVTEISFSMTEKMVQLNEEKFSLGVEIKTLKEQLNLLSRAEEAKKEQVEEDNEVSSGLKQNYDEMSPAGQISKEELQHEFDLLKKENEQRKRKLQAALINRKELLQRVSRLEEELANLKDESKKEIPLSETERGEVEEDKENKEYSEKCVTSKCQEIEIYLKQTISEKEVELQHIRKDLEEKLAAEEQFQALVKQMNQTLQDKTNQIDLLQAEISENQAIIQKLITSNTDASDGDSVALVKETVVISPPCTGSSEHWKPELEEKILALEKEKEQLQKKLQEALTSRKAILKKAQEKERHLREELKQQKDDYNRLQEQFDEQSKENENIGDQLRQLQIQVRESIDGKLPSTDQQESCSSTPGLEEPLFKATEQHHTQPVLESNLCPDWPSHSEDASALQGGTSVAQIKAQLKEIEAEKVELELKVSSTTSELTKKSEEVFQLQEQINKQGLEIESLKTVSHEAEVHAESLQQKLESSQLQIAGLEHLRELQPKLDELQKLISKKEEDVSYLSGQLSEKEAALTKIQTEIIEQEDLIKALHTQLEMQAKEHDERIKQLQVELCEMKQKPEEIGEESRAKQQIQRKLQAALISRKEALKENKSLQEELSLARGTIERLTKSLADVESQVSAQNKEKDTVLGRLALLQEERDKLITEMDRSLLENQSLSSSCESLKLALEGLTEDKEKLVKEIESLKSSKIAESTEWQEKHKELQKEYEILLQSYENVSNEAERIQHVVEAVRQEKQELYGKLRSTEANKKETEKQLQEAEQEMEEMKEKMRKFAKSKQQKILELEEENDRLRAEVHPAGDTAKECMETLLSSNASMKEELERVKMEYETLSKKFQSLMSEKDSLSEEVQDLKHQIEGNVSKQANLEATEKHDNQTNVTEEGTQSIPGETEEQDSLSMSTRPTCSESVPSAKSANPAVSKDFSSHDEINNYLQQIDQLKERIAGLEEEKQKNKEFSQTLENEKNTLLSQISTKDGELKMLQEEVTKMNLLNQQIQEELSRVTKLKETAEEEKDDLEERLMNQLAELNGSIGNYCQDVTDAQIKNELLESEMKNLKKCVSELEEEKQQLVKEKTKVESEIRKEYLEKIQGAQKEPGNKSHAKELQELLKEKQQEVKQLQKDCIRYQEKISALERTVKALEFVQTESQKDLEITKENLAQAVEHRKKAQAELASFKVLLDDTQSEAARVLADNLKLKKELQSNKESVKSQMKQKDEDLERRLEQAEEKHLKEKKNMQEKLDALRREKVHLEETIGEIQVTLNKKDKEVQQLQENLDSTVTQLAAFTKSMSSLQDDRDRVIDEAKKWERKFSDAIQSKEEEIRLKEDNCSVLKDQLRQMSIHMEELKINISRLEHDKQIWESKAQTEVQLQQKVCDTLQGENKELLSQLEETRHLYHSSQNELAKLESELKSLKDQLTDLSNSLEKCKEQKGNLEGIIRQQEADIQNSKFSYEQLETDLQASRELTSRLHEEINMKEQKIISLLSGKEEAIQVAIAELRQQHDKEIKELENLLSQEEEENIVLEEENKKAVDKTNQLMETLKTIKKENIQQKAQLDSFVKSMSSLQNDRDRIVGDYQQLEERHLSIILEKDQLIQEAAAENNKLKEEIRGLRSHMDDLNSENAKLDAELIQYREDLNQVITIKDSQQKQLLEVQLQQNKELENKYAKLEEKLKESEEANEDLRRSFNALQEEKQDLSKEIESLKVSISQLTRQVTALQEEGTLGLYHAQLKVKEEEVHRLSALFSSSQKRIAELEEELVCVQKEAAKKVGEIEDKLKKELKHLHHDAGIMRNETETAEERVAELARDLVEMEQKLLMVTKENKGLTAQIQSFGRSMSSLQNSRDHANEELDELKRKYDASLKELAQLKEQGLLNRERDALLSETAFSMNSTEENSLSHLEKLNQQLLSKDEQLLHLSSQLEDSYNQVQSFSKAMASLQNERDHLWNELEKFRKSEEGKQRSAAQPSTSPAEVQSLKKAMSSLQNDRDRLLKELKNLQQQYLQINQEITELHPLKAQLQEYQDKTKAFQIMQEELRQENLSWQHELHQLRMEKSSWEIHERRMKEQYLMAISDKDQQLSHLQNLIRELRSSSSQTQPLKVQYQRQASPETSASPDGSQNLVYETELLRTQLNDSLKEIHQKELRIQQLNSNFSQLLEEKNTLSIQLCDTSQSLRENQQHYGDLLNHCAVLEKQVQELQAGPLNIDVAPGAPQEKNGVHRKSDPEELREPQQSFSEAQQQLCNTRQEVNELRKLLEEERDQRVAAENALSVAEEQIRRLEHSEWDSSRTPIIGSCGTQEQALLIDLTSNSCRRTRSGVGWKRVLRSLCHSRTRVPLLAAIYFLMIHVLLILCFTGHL
UniProt Q14161: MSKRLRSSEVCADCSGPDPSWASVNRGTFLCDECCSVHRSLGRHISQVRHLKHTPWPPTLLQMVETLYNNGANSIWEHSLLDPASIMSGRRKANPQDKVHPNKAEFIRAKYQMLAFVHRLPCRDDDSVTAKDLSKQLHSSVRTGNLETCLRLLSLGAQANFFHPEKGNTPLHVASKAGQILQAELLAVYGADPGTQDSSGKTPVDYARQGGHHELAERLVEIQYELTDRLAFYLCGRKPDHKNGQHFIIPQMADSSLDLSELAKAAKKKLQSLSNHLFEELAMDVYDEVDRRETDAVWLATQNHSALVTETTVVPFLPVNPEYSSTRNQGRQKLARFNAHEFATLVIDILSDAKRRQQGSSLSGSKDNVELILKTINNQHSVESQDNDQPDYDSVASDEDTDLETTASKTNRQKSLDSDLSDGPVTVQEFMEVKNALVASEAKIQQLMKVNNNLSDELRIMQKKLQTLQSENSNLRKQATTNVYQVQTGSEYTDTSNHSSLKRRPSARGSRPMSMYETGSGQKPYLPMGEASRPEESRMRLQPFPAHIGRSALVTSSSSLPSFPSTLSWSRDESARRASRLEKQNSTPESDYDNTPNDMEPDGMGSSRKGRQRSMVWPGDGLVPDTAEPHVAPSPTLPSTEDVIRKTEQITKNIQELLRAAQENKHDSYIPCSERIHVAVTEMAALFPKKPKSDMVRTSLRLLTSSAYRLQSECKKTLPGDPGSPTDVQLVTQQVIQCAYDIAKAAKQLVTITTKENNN
UniProt Q04760: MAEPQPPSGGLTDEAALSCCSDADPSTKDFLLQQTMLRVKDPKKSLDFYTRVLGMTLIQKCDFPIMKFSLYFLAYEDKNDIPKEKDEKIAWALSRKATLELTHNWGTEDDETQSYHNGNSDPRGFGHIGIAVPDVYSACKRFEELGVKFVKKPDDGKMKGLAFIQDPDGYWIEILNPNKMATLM
UniProt P00505: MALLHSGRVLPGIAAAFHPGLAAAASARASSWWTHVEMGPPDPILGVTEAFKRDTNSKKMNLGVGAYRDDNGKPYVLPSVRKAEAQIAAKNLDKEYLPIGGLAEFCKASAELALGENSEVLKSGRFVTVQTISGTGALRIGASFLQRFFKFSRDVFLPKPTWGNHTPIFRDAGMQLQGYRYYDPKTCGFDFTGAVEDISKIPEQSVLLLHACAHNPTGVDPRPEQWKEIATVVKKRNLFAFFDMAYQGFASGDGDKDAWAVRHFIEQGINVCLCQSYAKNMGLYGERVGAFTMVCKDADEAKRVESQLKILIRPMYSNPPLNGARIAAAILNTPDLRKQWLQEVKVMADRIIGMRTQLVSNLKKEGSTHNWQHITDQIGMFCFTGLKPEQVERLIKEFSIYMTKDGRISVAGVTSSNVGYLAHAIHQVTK

The list shows a part of the results.

Compound in the experiment: CC1Cc2ccccc2N1C(=O)C1CCCN(C1)C(=O)CCl (mixture of isomers) [TRIM25 ligand 11 (diastereomer mixture)]
Nature of the experiment: probe-labelled cysteine peptide fold change vs DMSO (competition) (log2 fold change); higher = less target engagement (more negative = stronger competition). Conditions: THP-1, incubation time: 4 h.
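Note: competitive chemoproteomic profiling in live THP-1 cells with an iodoacetamide desthiobiotin (IA-DTB) probe, comparing probe-labelled peptide intensities in compound-treated cells against DMSO-treated controls.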

For the target “GPI_P06744_404_MIPCDFLIPVQTQHPIRK (UniProt P06744)”, the “probe-labelled cysteine peptide fold change” value by setting is: (10 µM) -0.0185; (50 µM) -0.0737.
“GMPS_P49915_530_SYSYVCGISSK (UniProt P49915)”: the “probe-labelled cysteine peptide fold change” value is, setting by setting: (10 µM) 0.226; (50 µM) 0.263.
“GLG1_Q92896_639_CLIDLGK (UniProt Q92896)”: the “probe-labelled cysteine peptide fold change” value is -0.0168 (10 µM) and 0.136 (50 µM).
Take “GLA_P06280_382_GVACNPACFITQLLPVKR (UniProt P06280)”: the “probe-labelled cysteine peptide fold change” value was -0.267 (10 µM) and 0.0634 (50 µM).
“GPD1L_Q8N335_216_NIVAVGAGFCDGLR (UniProt Q8N335)”: the “probe-labelled cysteine peptide fold change” value is 0.138 (10 µM) and 0.0362 (50 µM).
For the target “GOLGB1_Q14789_2664_RIAELEEELVCVQK (UniProt Q14789)”, the “probe-labelled cysteine peptide fold change” value worked out at 0.01 (10 µM) and 0.115 (50 µM).
For “GIT2_Q14161_149_TGNLETCLR (UniProt Q14161)”, the “probe-labelled cysteine peptide fold change” value by setting is: (10 µM) -0.0434; (50 µM) -0.0512.
Taken in the same sequence, the figures for “GIT2_Q14161_31+35_GTFLCDECCSVHR (UniProt Q14161)” were 0.0579 and -0.0328.
As to “GLO1_Q04760_19+20_AEPQPPSGGLTDEAALSCCSDADPSTK (UniProt Q04760)”, the “probe-labelled cysteine peptide fold change” value is -0.022 (10 µM) and -0.236 (50 µM).
As for “GOT2_P00505_272+274_HFIEQGINVCLCQSYAK (UniProt P00505)”, the “probe-labelled cysteine peptide fold change” value reads like this: (10 µM) 0.206; (50 µM) 0.283.
